# Assay results taken from the supplement of paper PMC5355238.
# Where a name gives a salt, the structure may show the parent alone. ± gives the standard deviation of the averaged measurements. This is one part of the list. Single values are uncertain, as repeats are few or missing.
# Test system: Reh
# Experiment: S-phase gammaH2AX median, Z-score vs plate median (drug alone); higher = more S-phase DNA damage
# Conditions: MK1775 concentration 0 nM; 10 µM; 4 h
row,SMILES,S-phase gammaH2AX median (Z-score)
1,CN[C@H](CC(=O)O)C(=O)O [N-Methyl-D-aspartic acid],-0.0071
2,CN1CCN(C2Cc3ccccc3Sc3ccc(Cl)cc32)CC1 (configuration not stated) [(?)-Octoclothepin maleate],-0.0568
3,"Cn1c(=O)c2[nH]c(-c3ccccc3)nc2n(C)c1=O [1,3-Dimethyl-8-phenylxanthine]",0.0828
4,C#Cc1cccc(Nc2ncnc3cc(OCCOC)c(OCCOC)cc23)c1 [Erlotinib HCl],0.0754
5,OC[C@H]1NC[C@H](O)[C@@H](O)[C@@H]1O [1-Deoxynojirimycin hydrochloride],-0.0819
6,CC(C)C[C@@H](C(=O)N[C@H](C(=O)OC1CCCC1)c1ccccc1)[C@H](O)C(=O)NO [Tosedostat (CHR2797)],0.08
7,C[C@H]1c2cccc(O)c2C(=O)C2=C(O)[C@]3(O)C(=O)C(C(N)=O)=C(O)[C@@H](N(C)C)[C@@H]3[C@@H](O)[C@@H]21 [Doxycycline hydrochloride],-0.126
8,C[C@](N)(Cc1ccc(O)c(O)c1)C(=O)O [L-alpha-Methyl DOPA],-0.026
9,c1cnc(N2CCN(Cc3ccc4c(c3)OCO4)CC2)nc1 [Piribedil maleate],0.00473
10,O=C(O)CNC(=O)C(CS)Cc1ccccc1 (racemic) [DL-Thiorphan],0.194
11,Fc1ccc(CN(C2=NCCN2)c2c(Cl)cccc2Cl)cc1 [IMID-4F hydrochloride],0.113
12,Cc1nn(-c2ccccc2)c(C)c1C=NN1CCN(Cc2ccccc2)CC1,-0.0205
13,Cc1ccc(NC(=O)c2ccc(CN3CCN(C)CC3)cc2)cc1Nc1nccc(-c2cccnc2)n1 [Imatinib (Gleevec)],-0.0104
14,OC[C@H]1O[C@@H](n2cnc3c(NC4CCCC4)ncnc32)[C@H](O)[C@@H]1O [N6-Cyclopentyladenosine],-0.0252
15,C[N+](C)(C)CC=O [Betaine aldehyde chloride],0.0155
16,CCCn1c(=O)[nH]c(=O)c2[nH]cnc21 [3-n-Propylxanthine],0.111
17,"Cn1c(=O)[nH]c2ncn(C)c2c1=O [1,7-Dimethylxanthine]",0.0409
18,C1COC(NC(C2CC2)C2CC2)=N1 [Rilmenidine hemifumarate],0.1
19,COc1cc(OC2CCN(C)CC2)ccc1Nc1ncc2c(n1)n(C1CCCC1)c(=O)n2C,0.0978
20,CC(NC(=O)c1ccccc1/N=C/c1c(O)ccc2ccccc12)c1ccccc1 (configuration not stated) [Sirtinol],-0.0313
21,NC1CCN(c2cccc(Cl)n2)CC1,0.04
22,NC(=NCCC[C@H](N)C(=O)O)NO [NG-Hydroxy-L-arginine acetate],0.0661
23,Cc1ccc(S(=O)(=O)N[C@@H](Cc2ccccc2)C(=O)CCl)cc1 [N-p-Tosyl-L-phenylalanine chloromethyl ketone],1.17
24,CC(C)NCC(O)COc1ccc(CCOCC2CC2)cc1 (configuration not stated) [Betaxolol hydrochloride],0.0291
25,CCOC(=O)c1cnc2c(cnn2CC)c1NN=C(C)C [Etazolate hydrochloride],-0.0724
26,COc1cc2ncnc(-n3nc(-c4ccccn4)nc3N)c2cc1OC,-0.12

# Reprinted from above for reference:
row,SMILES,S-phase gammaH2AX median (Z-score)
7,C[C@H]1c2cccc(O)c2C(=O)C2=C(O)[C@]3(O)C(=O)C(C(N)=O)=C(O)[C@@H](N(C)C)[C@@H]3[C@@H](O)[C@@H]21 [Doxycycline hydrochloride],-0.126
8,C[C@](N)(Cc1ccc(O)c(O)c1)C(=O)O [L-alpha-Methyl DOPA],-0.026
9,c1cnc(N2CCN(Cc3ccc4c(c3)OCO4)CC2)nc1 [Piribedil maleate],0.00473
10,O=C(O)CNC(=O)C(CS)Cc1ccccc1 (racemic) [DL-Thiorphan],0.194
11,Fc1ccc(CN(C2=NCCN2)c2c(Cl)cccc2Cl)cc1 [IMID-4F hydrochloride],0.113
12,Cc1nn(-c2ccccc2)c(C)c1C=NN1CCN(Cc2ccccc2)CC1,-0.0205
13,Cc1ccc(NC(=O)c2ccc(CN3CCN(C)CC3)cc2)cc1Nc1nccc(-c2cccnc2)n1 [Imatinib (Gleevec)],-0.0104
14,OC[C@H]1O[C@@H](n2cnc3c(NC4CCCC4)ncnc32)[C@H](O)[C@@H]1O [N6-Cyclopentyladenosine],-0.0252
15,C[N+](C)(C)CC=O [Betaine aldehyde chloride],0.0155
16,CCCn1c(=O)[nH]c(=O)c2[nH]cnc21 [3-n-Propylxanthine],0.111
17,"Cn1c(=O)[nH]c2ncn(C)c2c1=O [1,7-Dimethylxanthine]",0.0409
18,C1COC(NC(C2CC2)C2CC2)=N1 [Rilmenidine hemifumarate],0.1
19,COc1cc(OC2CCN(C)CC2)ccc1Nc1ncc2c(n1)n(C1CCCC1)c(=O)n2C,0.0978
20,CC(NC(=O)c1ccccc1/N=C/c1c(O)ccc2ccccc12)c1ccccc1 (configuration not stated) [Sirtinol],-0.0313
21,NC1CCN(c2cccc(Cl)n2)CC1,0.04
22,NC(=NCCC[C@H](N)C(=O)O)NO [NG-Hydroxy-L-arginine acetate],0.0661
23,Cc1ccc(S(=O)(=O)N[C@@H](Cc2ccccc2)C(=O)CCl)cc1 [N-p-Tosyl-L-phenylalanine chloromethyl ketone],1.17
24,CC(C)NCC(O)COc1ccc(CCOCC2CC2)cc1 (configuration not stated) [Betaxolol hydrochloride],0.0291
25,CCOC(=O)c1cnc2c(cnn2CC)c1NN=C(C)C [Etazolate hydrochloride],-0.0724

# The listing continues:

row,SMILES,S-phase gammaH2AX median (Z-score)
1,NCCCCNS(=O)(=O)c1ccc2c(Cl)cccc2c1,0.035
2,COc1cc2ncnc(Nc3cccc(Cl)c3)c2cc1OC [Tyrphostin AG 1478],0.601
3,COc1ccc(C2=N[C@@H](c3ccc(Cl)cc3)[C@@H](c3ccc(Cl)cc3)N2C(=O)N2CCNC(=O)C2)c(OC(C)C)c1 [Nutlin-3],0.0205
4,"c1ccc(C2CN3CCSC3=N2)cc1 (single isomer, unassigned; (-)) [(-)-Tetramisole hydrochloride]",0.147
5,CN/C(=N\CCSCc1nc[nH]c1C)NC#N [Cimetidine],-0.0563
6,CC1CCN=C(N)S1 (configuration not stated) [(?)-AMT hydrochloride],0.122
7,N#C/C(=C\c1ccc(O)c(O)c1)C(=O)NCCCc1ccccc1 [Tyrphostin AG 555],0.04
8,NC(=O)c1ccc(I)c([N+](=O)[O-])c1 [Iniparib (BSI-201)],0.168
9,O=C(O)c1cc2cc(Cc3cccnc3)ccc2o1 [Furegrelate sodium],-0.0661
10,CC(C)(C)c1ccc(S(=O)(=O)/C=C/C#N)cc1,1.52 ± 2.3
11,"O=Nc1ccc2oc(=O)ccc2c1 [6-Nitroso-1,2-benzopyrone]",-0.0307
12,CC(=O)c1c(C)c2cnc(Nc3ccc(N4CCNCC4)cn3)nc2n(C2CCCC2)c1=O,-0.0437
13,"O=C(O)c1cc(=O)c2c(Cl)cc(Cl)cc2[nH]1 [5,7-Dichlorokynurenic acid]",0.0252
14,C[C@@H](O[C@H]1OCCN(Cc2n[nH]c(=O)[nH]2)[C@H]1c1ccc(F)cc1)c1cc(C(F)(F)F)cc(C(F)(F)F)c1 [Aprepitant (MK-0869)],0.0259
15,Cc1cn(-c2cc(NC(=O)c3ccc(C)c(Nc4nccc(-c5cccnc5)n4)c3)cc(C(F)(F)F)c2)cn1 [Nilotinib (AMN-107)],-0.0731
16,NC(=O)c1ccc(-c2nc(-c3ccccn3)c(-c3ccc4c(c3)OCO4)[nH]2)cc1,0.0236
17,CN1C(=O)C(Cc2c[nH]c3ccccc23)NC1=S (configuration not stated) [Necrostatin-1],0.209
18,COc1cc2c(NC3CCN(C)CC3)nc(N3CCCN(C)CC3)nc2cc1OCCCN(C)C,0.175
19,CCn1c(-c2nonc2N)nc2c(C#CC(C)(C)O)ncc(OC[C@H]3CCCNC3)c21,-0.0151
20,NC(=O)CC[C@H](N)C(=O)O [L-Glutamine],0.139
21,CCN(CC)CCOc1ccc(Nc2ncc3cc(-c4c(Cl)cccc4Cl)c(=O)n(C)c3n2)cc1,4.51
22,CC(C)OC(=O)C(C)(C)Oc1ccc(C(=O)c2ccc(Cl)cc2)cc1 [Fenofibrate],-0.173
23,NC(=O)c1cnccn1 [Pyrazinecarboxamide],-0.0639
24,Nc1nc(N)c(N=O)c(OCC2CCCCC2)n1,0.00967
25,O=C(CCNNC(=O)c1ccncc1)NCc1ccccc1 [Nialamide],0.0189
26,N/C(=N\C(=O)c1nc(Cl)c(N)nc1N)NCc1ccccc1 [Benzamil hydrochloride],-0.0796

row,SMILES,S-phase gammaH2AX median (Z-score)
1,"CCCn1c(=O)c2[nH]c(C3CCCC3)nc2n(CCC)c1=O [8-Cyclopentyl-1,3-dipropylxanthine]",0.035
2,Nc1ccc(-c2ccc3ncc4ccc(=O)n(-c5cccc(C(F)(F)F)c5)c4c3c2)cn1 [Torin 2],-0.276
3,CCC(=O)c1ccc2c(c1)N(CCCN(C)C)c1ccccc1S2 [Propionylpromazine hydrochloride],0.0828
4,Cc1nc2ccccn2c(=O)c1CCN1CCC(C(=O)c2ccc(F)cc2)CC1 [Pirenperone],0.102
5,COc1cccc2c1C(=O)c1c(O)c3c(c(O)c1C2=O)C[C@@](O)(C(=O)CO)C[C@@H]3O[C@H]1C[C@H](N)[C@@H](O)[C@H](C)O1 [Epirubicin Hydrochloride],0.657
6,CCCN(CCC)CCc1cccc2c1CC(=O)N2 [Ropinirole hydrochloride],0
7,N=C(N)c1ccc(N)cc1 [4-Aminobenzamidine dihydrochloride],-0.0408
8,CC(=O)O[C@H]1C(=O)[C@@]2(C)[C@H]([C@H](OC(=O)c3ccccc3)[C@]3(O)C[C@H](OC(=O)[C@H](O)[C@@H](NC(=O)c4ccccc4)c4ccccc4)C(C)=C1C3(C)C)[C@]1(OC(C)=O)CO[C@@H]1C[C@@H]2O [Taxol],0.567
9,CC(=O)O[C@H]1C(=O)[C@@]2(C)[C@H]([C@H](OC(=O)c3ccccc3)[C@]3(O)C[C@H](OC(=O)[C@H](O)[C@@H](NC(=O)c4ccccc4)c4ccccc4)C(C)=C1C3(C)C)[C@]1(OC(C)=O)CO[C@@H]1C[C@@H]2O [Paclitaxel (Taxol)],-0.0584
10,COc1ccccc1N1CCN(CCN(C(=O)c2ccc(I)cc2)c2ccccn2)CC1 [p-MPPI hydrochloride],-0.052
11,OCCn1cc(-c2cnc3nnn(Cc4ccc5ncccc5c4)c3n2)cn1,0.13
12,OC1(c2ccc(Cl)cc2)CCN(Cc2c[nH]c3ccccc23)CC1,0.102
13,Nc1cc(N2CCCCC2)nc(N)[n+]1[O-] [Minoxidil],-0.0568
14,"Nc1ncnc2c1ncn2[C@@H]1O[C@H](COP(=O)(O)OP(=O)(O)OP(=O)(O)OP(=O)(O)OC[C@@H]2O[C@H](n3cnc4c(N)ncnc43)C(O)[C@@H]2O)[C@H](O)C1O (some centres not stated) [P1,P4-Di(adenosine-5')tetraphosphate triammonium]",0.29
15,COc1ccc2cc([C@H](C)C(=O)O)ccc2c1 [(-)-Naproxen sodium],-0.0946
16,O=c1n(CCCN2CCN(c3cccc(Cl)c3)CC2)nc2ccccn12 [Trazodone hydrochloride],-0.34
17,CCOc1cc(C(=O)Nc2ccc(Cl)c(-c3nc4ccccc4[nH]3)c2)cc(OCC)c1OCC,-0.0414
18,C=C[C@H]1CN2CC[C@H]1C[C@H]2[C@H](O)c1ccnc2ccc(OC)cc12 [Quinine sulfate],0.0591
19,O=C(O)c1ccc2cc(-c3ccc(O)c(C45CC6CC(CC(C6)C4)C5)c3)ccc2c1,9.15
20,Oc1ccc(-c2nc(-c3ccc(F)cc3)c(-c3ccncc3)[nH]2)cc1,-0.00388
21,NS(=O)(=O)c1cc2c(cc1Cl)NC(C1CC3C=CC1C3)NS2(=O)=O (configuration not stated) [Cyclothiazide],0.0971
22,S=C(S)N1CCCC1 [Ammonium pyrrolidinedithiocarbamate],-0.0851
23,CSC(=N)NCCC[C@H](N)C(=O)O [S-Methyl-L-thiocitrulline acetate],-0.0615
24,O=c1oc2c(O)c(O)cc3c(=O)oc4c(O)c(O)cc1c4c23 [Ellagic acid],0.0205
25,c1ccc2c(CC3=NCCN3)cccc2c1 [Naphazoline hydrochloride],0.0639
